# The supplement of paper PMC3334620
# In all, about 33,000 sequences were measured (“E-score (-0.5 to 0.5)”: median about -0.015, highest 2% from about 0.3 on). This is one part of the list.
# Molecular target: T1, Abf1 (UniProt P14164)
# T1 sequence: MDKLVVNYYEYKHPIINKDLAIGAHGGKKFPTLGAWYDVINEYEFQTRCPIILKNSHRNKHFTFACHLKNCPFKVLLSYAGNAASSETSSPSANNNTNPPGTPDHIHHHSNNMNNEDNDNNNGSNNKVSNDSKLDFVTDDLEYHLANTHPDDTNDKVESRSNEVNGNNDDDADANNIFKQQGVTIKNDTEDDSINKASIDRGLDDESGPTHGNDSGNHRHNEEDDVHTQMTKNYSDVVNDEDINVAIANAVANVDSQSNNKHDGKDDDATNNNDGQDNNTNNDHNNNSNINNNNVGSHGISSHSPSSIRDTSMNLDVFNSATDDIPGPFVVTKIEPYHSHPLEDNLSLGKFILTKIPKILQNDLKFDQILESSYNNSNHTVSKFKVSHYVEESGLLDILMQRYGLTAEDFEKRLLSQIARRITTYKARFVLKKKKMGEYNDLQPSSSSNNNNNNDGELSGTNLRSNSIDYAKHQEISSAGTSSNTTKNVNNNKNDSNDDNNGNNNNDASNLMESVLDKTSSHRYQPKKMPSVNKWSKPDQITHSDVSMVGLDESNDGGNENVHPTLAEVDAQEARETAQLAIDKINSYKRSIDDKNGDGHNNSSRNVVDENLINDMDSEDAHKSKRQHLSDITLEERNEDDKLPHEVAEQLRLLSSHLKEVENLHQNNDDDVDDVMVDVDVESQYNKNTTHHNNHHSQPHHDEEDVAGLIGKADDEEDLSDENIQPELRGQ
# Assay: PBM E-score (8-mer binding enrichment) (E-score (-0.5 to 0.5)); higher = stronger / more preferred TF binding
# Settings: protein concentration: 200 nM; construct: GST-full length
# How it was run: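 Masliner-normalised scans of fluorescent anti-GST signal were the basis for scoring. That signal came from GST-tagged yeast transcription factors applied at about 100-200 nM to double-stranded universal all-10-mer Agilent arrays on fresh or once-stripped slides. Each ungapped eight-base word, pooled with its reverse complement, received an E-score from the Universal PBM Analysis Suite.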
row,Sequence,PBM E-score
1,ATGACAAC,0.343
2,AAGCGACT,0.041
3,GCTCAACA,-0.104
4,ACAGTCGT,0.13
5,GAACAGCA,-0.0269
6,GTGGCGAA,-0.0215
7,GAAACGTA,0.0177
8,CCGAGGAC,-0.0671
9,GGAGAGCC,-0.293
10,AACGTGTC,0.0853
11,GAGGGAAC,-0.046
12,GAGGTAAA,-0.107
13,ACGGTATA,0.204
14,CCGTAACG,-0.0416
15,TCAGGAGA,0.0741
16,GGAACAAC,-0.0393
17,ATCCTGCC,-0.101
18,ACGTTGGG,0.0255
19,GCTTACAC,0.0186
20,CCGCTCAC,-0.195
21,ACTTAAGA,0.132
22,CCGTTTGA,0.0879
23,CCGTCTGA,0.186
24,ACAATAGC,0.0218
25,GTGCGGCA,0.232

# As entered above.
# For PBM E-score, ACAGTCGT reads 0.13
# For PBM E-score, GTGGCGAA reads -0.0215
# For PBM E-score, CCGAGGAC reads -0.0671
# For PBM E-score, CCGCTCAC reads -0.195
# For PBM E-score, ATCCTGCC reads -0.101
# For PBM E-score, GAAACGTA reads 0.0177

# Later entries

row,Sequence,PBM E-score
1,CTGGCGGA,-0.122
2,CGATGACA,0.319
3,GAAACATA,0.0166
4,AGGATGTC,0.126
5,ATCAGCTA,-0.0482
6,AGTTCAGA,-0.0713
7,AGGACCTG,-0.203
8,CGCTCACA,-0.0723
9,CTAGCCCA,-0.227
10,CCATGAAG,0.0123
11,ATAGACGA,0.225
12,CTACAACA,-0.0578
13,ACTATTGC,-0.00113
14,AAGTGAAA,-0.0619
15,GCGCACTA,0.0586
16,GCGCGCCC,-0.116
17,GACCAGAC,0.0801
18,CGGTCCCC,-0.243
19,ACGCGGAG,-0.162
20,GGGCCGTA,0.244
21,AGGAGATA,-0.0389
22,CGTCTTAG,-0.0248
23,CGCTGTAG,0.126
24,AACTCAGG,-0.00462
25,ATAGCAGG,0.0166

row,Sequence,PBM E-score
1,AGGATTTG,-0.053
2,TGACGTAA,0.13
3,CGCCTTGC,0.00414
4,ATAATGAA,0.0482
5,CAGGCACC,-0.178
6,ATTTAGGA,0.0948
7,AAGAGTCC,-0.0869
8,GCCTCTGA,-0.316
9,ACCCAGAA,-0.0336
10,AGGACTAC,-0.265
11,AAATTAGG,0.142
12,ATCCCTGC,-0.0438
13,AATAATTC,0.113
14,ACATGCCA,-0.0572
15,CCGCTCTC,-0.168
16,CTCGTCAG,0.182
17,GCTAGGCA,-0.252
18,ACACCTTC,-0.079
19,AGCCGCGG,-0.131
20,AGGACGGC,0.0783
21,ATTCGACA,-0.0448
22,GGGGGAGA,-0.297
23,CATAAAAC,0.0891
24,CCAGCTGA,0.0075
25,AACCCTTA,0.139

row,Sequence,PBM E-score
1,TACAGCAA,-0.0284
2,AACTGAAC,-0.0135
3,CGGGTTCC,-0.0803
4,AGGAAGGA,-0.244
5,CATGGCGA,0.00987
6,ATGTTGGG,-0.15
7,CTACCACA,-0.173
8,ATATGACA,0.2
9,CCGCCTGC,0.0226
10,CCACTCAA,0.0392
11,TCACAACA,0.115
12,GTCGCCAA,0.0446
13,GAATTTAA,0.0623
14,TAGAAACA,-0.0416
15,TCGAGTCA,0.0523
16,GATATTGA,0.201
17,CACCAACA,-0.0828
18,AAGAACTA,0.134
19,AGTGGCTC,-0.209
20,CATCTGTA,0.0105
21,AGGTACAG,-0.104
22,CGTCTGGC,0.0925
23,CTACGCAG,-0.144
24,AGGCTCCG,0.134
25,CCGGCAGC,-0.0671

row,Sequence,PBM E-score
1,ATACACAA,-0.0352
2,AAACGGGG,0.0143
3,GCTGTAAA,-0.0536
4,ATCGCAGC,-0.0387
5,ACGAAGGG,0.136
6,TACTTTCA,0.132
7,CCGTCACA,0.195
8,CAATCGTC,0.102
9,CTTACATA,0.104
10,ACGTAGGC,0.043
11,AGATACCG,0.0833
12,ACCTTAGG,-0.159
13,GGCGTTAC,-0.0613
14,AGCGGAGG,-0.298
15,CTTGGCTC,-0.216
16,AAAGCTCT,-0.186
17,AACCTATC,-0.0842
18,GAATCACA,0.0513
19,CCCCCTTA,-0.439
20,AGCTTGAC,-0.245
21,CCCTACTC,-0.144
22,AATCTACA,0.0424
23,AGTGACAC,0.382
24,CGCTTAAC,0.0568
25,CAGACGAG,0.151

row,Sequence,PBM E-score
1,ATTCGCGC,0.0983
2,CCGTCGTC,0.161
3,GGGCCACA,-0.138
4,CCGCGCAG,-0.0355
5,CCGTATCG,0.256
6,AAGGTCCA,0.0292
7,GTGTTGAA,0.123
8,ATTGAATG,-0.0546
9,GACCGATC,-0.163
10,CGCAGACG,0.0261
11,CAAGTACG,0.105
12,ATCCTGCA,0.0251
13,AGTCCTCA,-0.086
14,CATAGGTC,-0.0589
15,GGGCCCCA,-0.295
16,AGAAGCCC,-0.16
17,AAAAGTGG,0.0942
18,ACAATGTC,0.226
19,CCCTGCGG,-0.315
20,AACACTCT,-0.0602
21,ATTACTCA,0.0171
22,ACTATGCC,0.0958
23,AGTACTAT,0.129
24,CCAAATGC,-0.223
25,CGCTATAA,-0.0302

row,Sequence,PBM E-score
1,TCGGGTCA,-0.0674
2,AGCCAGTG,0.151
3,AAGCGTGT,-0.0259
4,ATCCGCCG,2e-05
5,AGTTGTTA,0.06
6,CGAGACGC,-0.0479
7,AATACATT,0.112
8,AGTTAACC,-0.0201
9,AGGAGCAT,-0.0588
10,CACTTGAA,-0.0514
11,AAACGCTT,-0.0985
12,TCTTAACA,0.129
13,CGCATAGA,0.00565
14,ACAGGCAC,-0.118
15,CAGTCAAA,-0.0295
16,TATGGCGA,-0.0381
17,CCCGATGA,0.0915
18,ATAGAGAA,-0.0045
19,CAATGCAG,-0.0393
20,AGATAAGA,0.194
21,AGCGCAGC,-0.241
22,CTTACAGA,-0.069
